Results published in the supplement of paper PMC10849652.
The list shows a part of the results.

The chains behind the UniProt entries cited, without tags or fusion partners. Where a name states a change or a piece, a line headed by the entry shows the natural chain unless it says otherwise.
UniProt P61163, whole entry, looked up: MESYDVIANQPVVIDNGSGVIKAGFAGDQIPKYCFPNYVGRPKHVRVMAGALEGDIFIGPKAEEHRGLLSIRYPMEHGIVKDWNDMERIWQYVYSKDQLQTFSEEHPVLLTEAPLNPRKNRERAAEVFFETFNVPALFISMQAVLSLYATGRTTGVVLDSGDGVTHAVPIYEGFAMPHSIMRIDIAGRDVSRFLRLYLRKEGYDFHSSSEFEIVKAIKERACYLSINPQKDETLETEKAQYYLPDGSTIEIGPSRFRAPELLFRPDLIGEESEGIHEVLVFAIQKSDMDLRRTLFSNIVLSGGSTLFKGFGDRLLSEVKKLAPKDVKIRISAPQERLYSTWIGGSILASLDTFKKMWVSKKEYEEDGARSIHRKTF
UniProt P55263: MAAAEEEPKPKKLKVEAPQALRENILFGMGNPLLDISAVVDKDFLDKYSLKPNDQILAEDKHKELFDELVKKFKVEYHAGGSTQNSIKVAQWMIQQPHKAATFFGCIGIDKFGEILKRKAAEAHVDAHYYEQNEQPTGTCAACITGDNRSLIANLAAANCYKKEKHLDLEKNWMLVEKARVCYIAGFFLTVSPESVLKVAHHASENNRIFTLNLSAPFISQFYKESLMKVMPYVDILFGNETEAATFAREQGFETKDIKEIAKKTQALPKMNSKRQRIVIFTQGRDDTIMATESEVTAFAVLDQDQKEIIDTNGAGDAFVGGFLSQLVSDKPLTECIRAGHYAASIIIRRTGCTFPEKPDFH
UniProt O95573: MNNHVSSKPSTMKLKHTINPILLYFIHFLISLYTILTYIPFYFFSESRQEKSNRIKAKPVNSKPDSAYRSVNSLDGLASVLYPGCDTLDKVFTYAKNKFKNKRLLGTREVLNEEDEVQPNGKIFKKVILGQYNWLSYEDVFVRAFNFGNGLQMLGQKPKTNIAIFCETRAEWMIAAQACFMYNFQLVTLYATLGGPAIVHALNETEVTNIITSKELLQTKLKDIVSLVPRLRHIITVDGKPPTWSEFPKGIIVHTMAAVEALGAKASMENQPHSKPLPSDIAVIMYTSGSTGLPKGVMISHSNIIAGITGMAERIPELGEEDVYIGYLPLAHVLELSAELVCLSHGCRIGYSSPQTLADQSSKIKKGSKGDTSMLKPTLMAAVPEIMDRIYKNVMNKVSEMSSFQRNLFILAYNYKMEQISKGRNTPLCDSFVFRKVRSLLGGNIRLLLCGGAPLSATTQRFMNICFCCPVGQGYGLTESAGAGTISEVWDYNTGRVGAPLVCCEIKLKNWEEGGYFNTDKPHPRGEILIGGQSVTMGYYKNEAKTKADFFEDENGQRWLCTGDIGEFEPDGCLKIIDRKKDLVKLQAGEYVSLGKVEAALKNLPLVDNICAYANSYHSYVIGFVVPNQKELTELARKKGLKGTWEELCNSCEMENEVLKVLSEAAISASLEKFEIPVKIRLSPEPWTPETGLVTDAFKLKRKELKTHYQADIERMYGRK
UniProt Q53FZ2: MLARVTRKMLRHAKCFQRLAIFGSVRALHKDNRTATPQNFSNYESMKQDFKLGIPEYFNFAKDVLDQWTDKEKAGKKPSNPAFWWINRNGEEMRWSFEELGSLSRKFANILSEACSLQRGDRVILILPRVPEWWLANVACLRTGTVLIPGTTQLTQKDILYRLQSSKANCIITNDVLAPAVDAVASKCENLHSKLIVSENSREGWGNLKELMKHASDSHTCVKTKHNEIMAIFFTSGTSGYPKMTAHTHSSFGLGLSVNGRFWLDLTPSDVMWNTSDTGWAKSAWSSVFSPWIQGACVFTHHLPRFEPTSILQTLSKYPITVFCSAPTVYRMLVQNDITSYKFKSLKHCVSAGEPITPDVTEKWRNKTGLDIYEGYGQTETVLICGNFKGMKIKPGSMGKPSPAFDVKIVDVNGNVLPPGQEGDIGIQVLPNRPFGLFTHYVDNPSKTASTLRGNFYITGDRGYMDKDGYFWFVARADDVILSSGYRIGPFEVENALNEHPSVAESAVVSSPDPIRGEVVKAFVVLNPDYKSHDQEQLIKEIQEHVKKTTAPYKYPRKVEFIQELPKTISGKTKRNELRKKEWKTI
UniProt Q9UNA0: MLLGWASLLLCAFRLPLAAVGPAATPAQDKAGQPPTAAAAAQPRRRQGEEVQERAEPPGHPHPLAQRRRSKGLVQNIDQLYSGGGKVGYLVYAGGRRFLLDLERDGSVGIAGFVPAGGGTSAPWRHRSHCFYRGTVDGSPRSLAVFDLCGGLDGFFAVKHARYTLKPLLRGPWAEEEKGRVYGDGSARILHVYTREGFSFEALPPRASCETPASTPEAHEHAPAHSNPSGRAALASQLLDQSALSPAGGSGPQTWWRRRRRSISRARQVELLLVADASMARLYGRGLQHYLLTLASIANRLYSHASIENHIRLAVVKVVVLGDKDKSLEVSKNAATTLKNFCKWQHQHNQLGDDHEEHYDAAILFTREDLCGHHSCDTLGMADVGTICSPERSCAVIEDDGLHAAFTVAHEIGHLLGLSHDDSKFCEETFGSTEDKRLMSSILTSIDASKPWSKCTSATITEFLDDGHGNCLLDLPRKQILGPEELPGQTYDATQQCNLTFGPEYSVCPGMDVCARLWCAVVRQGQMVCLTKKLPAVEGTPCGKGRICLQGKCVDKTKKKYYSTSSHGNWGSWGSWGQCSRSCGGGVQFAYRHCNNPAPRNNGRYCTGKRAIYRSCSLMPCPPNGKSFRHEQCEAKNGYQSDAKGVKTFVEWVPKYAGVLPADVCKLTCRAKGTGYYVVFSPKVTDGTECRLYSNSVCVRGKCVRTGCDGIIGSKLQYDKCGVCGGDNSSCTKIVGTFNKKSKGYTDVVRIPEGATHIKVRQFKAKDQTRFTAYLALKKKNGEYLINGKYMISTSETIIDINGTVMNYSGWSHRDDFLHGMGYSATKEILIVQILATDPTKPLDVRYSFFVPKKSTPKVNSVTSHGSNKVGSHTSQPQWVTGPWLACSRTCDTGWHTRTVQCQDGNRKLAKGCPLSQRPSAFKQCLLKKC
UniProt Q92667: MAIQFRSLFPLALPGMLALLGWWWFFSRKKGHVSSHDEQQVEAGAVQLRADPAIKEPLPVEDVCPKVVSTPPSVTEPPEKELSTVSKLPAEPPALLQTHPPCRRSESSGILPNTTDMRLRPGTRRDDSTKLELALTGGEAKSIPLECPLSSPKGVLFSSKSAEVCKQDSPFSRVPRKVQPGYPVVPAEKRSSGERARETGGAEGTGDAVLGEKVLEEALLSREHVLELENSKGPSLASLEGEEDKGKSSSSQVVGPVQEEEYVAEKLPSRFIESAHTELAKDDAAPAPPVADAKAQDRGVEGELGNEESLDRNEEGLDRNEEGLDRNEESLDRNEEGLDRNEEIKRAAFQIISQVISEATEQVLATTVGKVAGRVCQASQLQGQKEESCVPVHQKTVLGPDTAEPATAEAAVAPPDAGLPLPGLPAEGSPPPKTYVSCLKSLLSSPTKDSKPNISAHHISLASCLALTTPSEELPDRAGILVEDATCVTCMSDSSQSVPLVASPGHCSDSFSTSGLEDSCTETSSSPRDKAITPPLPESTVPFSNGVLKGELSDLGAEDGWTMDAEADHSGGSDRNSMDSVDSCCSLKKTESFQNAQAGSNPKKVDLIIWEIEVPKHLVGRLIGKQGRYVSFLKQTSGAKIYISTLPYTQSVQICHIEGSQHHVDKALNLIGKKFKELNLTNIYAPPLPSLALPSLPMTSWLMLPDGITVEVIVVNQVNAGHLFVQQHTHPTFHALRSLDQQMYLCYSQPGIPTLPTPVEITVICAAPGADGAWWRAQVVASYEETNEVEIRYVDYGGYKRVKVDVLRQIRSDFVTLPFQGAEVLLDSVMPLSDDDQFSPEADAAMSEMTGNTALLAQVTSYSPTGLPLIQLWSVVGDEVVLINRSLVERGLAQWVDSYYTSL
UniProt O14672: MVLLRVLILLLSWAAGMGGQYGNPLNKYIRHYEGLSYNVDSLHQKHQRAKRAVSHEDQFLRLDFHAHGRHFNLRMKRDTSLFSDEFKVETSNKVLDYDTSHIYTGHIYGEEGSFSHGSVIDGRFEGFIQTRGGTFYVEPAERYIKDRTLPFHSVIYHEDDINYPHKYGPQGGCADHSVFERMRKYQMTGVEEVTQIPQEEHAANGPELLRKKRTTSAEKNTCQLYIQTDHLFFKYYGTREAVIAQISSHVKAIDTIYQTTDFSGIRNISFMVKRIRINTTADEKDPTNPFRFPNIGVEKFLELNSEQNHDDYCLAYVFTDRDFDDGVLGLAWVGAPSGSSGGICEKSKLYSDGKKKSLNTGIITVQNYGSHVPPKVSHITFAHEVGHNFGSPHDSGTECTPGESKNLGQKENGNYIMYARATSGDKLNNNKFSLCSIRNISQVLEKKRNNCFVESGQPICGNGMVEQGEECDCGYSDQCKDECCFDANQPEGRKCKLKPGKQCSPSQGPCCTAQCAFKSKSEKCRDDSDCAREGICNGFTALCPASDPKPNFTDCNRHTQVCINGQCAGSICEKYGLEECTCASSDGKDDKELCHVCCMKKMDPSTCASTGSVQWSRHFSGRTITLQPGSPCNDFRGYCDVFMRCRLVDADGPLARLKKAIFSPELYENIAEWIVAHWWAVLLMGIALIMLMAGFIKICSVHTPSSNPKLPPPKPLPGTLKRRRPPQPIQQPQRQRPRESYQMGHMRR
UniProt O00170: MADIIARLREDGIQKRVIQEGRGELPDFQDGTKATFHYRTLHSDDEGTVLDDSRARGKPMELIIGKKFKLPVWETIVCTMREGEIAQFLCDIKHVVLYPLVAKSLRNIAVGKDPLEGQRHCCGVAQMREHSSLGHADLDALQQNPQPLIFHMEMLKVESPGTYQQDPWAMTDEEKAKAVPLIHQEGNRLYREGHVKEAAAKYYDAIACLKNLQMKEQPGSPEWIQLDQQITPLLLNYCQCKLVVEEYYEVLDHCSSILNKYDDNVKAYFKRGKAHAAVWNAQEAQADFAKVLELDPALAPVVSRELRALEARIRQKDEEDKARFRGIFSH
UniProt O60488: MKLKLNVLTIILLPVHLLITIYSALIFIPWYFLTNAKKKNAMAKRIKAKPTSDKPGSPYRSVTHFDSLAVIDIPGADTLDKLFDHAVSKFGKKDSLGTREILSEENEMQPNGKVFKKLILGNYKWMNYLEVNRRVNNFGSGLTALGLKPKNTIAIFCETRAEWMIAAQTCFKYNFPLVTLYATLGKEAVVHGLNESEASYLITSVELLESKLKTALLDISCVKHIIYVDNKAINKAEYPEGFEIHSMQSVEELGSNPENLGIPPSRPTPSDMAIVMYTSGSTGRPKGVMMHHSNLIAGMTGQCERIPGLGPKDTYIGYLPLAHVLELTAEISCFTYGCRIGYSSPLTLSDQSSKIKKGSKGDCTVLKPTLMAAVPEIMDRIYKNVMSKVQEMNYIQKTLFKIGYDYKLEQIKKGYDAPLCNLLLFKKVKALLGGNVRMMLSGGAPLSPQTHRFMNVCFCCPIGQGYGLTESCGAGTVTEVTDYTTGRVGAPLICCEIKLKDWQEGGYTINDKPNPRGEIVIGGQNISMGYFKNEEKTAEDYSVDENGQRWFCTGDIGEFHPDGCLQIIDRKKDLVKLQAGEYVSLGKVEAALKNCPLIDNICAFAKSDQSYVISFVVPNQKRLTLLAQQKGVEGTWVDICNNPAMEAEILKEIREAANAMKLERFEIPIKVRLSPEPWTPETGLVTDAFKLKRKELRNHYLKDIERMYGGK
UniProt Q6DHV7: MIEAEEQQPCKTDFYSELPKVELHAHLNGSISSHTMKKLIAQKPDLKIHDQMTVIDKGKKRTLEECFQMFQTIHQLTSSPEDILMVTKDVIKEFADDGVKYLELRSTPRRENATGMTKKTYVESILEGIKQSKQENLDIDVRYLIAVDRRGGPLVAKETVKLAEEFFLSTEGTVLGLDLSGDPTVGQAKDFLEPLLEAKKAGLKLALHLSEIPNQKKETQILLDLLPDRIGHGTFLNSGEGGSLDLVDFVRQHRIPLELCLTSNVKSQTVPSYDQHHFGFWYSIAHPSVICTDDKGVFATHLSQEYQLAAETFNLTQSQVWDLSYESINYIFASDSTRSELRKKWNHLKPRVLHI
UniProt Q9BRR6: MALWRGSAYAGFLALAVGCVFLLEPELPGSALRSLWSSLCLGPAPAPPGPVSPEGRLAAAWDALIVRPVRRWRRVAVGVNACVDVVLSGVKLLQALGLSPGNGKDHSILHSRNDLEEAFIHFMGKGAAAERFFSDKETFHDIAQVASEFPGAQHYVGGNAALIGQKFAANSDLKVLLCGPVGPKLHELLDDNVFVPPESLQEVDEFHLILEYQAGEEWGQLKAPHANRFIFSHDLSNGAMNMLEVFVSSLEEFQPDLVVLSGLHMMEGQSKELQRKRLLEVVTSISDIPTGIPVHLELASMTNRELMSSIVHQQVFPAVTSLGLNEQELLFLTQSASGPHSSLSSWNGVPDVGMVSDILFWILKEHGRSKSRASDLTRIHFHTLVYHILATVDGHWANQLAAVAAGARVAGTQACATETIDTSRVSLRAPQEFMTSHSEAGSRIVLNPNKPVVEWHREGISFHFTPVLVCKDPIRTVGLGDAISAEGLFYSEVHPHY

Tests used:
Test in all cases: log2 fold change, soluble protein after heating vs DMSO (PISA); higher = thermal stabilisation; K562 lysate, 10 uM; active = over 0.2 and 3.5 SD of the protein, either way, in both replicates (recomputed)
erlotinib = compound: C#Cc1cccc(Nc2ncnc3cc(OCCOC)c(OCCOC)cc23)c1 [erlotinib]
Summary of the method: (§1)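 Dounce homogenisation of K562 pellets in PBS pH 7.4 with 1 mM MgCl2 produced a crude extract, used at 1 mg/mL protein. Exposure to 10 μM compound lasted 30 min, and aliquots were then heated for 3 min across 48°C-58°C, pooled and brought to 0.5% NP-40 at 4°C. The supernatant after 21,000xg for 90 min was quantified by TMTpro 16plex LC-MS/MS with channel sums equalised. Duplicate values are given as log-two fold change in thermal stability relative to solvent controls.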

[1] = compound: C/C(=N\NC(=O)C1=CC(=CC=C1)S(=O)(=O)N2CCOCC2)/C3=C(C=CC(=C3)Cl)O
Summary of the method: as §1

[2] = compound: C1=CC(=CC=C1C2=NC3=C(N2)C=C(C=C3)C(=O)N)OC4=CC=C(C=C4)Cl
Summary of the method: as §1

[3] = compound: C1=CC2=C(C=CC(=C2)/C=C\3/C(=O)NC(=NCC4=CC=CS4)S3)N=C1
Summary of the method: as §1

[4] = compound: C1=CC2=NC=CN=C2C=C1/C=C/3\C(=O)NC(=O)S3
Summary of the method: as §1

[5] = compound: C1=CC=C(C=C1)C2=NC(=C(N2)C3=CC=NC=C3)C4=CC(=C(C=C4)Cl)O
Summary of the method: as §1

[6] = compound: C1=CC=C2C(=C1)C3=NNC4=CC=CC(=C43)C2=O
Summary of the method: as §1

[7] = compound: C1CCN(C1)C(=O)NC2=CC=CC(=C2)NC3=NC=C(C(=N3)NCCC4=CN=CN4)Br
Summary of the method: as §1

[8] = compound: C1CN(CCC1(CC2=CC=C(C=C2)Cl)N)C3=NC=NC4=C3C=CN4
Summary of the method: as §1

IRAK-1-4 Inhibitor I = compound: C1COCCN1CCN2C3=CC=CC=C3N=C2NC(=O)C4=CC(=CC=C4)[N+](=O)[O-] [IRAK-1-4 Inhibitor I]
Summary of the method: as §1

ibrutinib = compound: C=CC(=O)N1CCC[C@@H](n2nc(-c3ccc(Oc4ccccc4)cc3)c3c(N)ncnc32)C1 [ibrutinib]
Summary of the method: as §1

[9] = compound: CC(=O)c1cnc2ccc(-c3cc(Cl)c(O)c(Cl)c3)nc2c1N[C@H]1CC[C@H](CN(C)C)CC1
Summary of the method: as §1

ralimetinib = compound: CC(C)(C)Cn1c(N)nc2ccc(-c3[nH]c(C(C)(C)C)nc3-c3ccc(F)cc3)nc21 [ralimetinib]
Summary of the method: as §1

[10] = compound: CC(C)(O)CC(=O)NCCn1ccc2ncnc(Nc3ccc(Oc4cccc(C(F)(F)F)c4)c(Cl)c3)c21
Summary of the method: as §1

[11] = compound: CC(C)C1=C2N=C(C=C(N2N=C1)NCC3=CC=CC=C3)NCCCCCCN
Summary of the method: as §1

[12] = compound: CC1=C(C(CC(=O)N1)C2=CC=C(C=C2)C(F)(F)F)C(=O)NC3=C(C=C4C(=C3)C=NN4)F
Summary of the method: as §1

[13] = compound: CC1=C(C2=C(C=C1)C(=O)C3=CC=CC=C3N2CCCN)C
Summary of the method: as §1

[14] = compound: CC1=C(C=C(C=C1)NC(=O)C2=CC(=CC=C2)C(C)(C)C#N)NC3=CC4=C(C=C3)N=CN(C4=O)C
Summary of the method: as §1

[15] = compound: CC1=C(C=C(C=C1)NC(=O)C2=CC(=CC=C2)N(C)C)NC(=O)C3=CC=C(C=C3)O
Summary of the method: as §1

[16] = compound: CC1=CC=C(C=C1)SC2=C3C=C(SC3=CN=C2)C(=O)N
Summary of the method: as §1

Measured: log2 fold change

ACTR1A (UniProt P61163)
inactive: erlotinib -0.027 | [1] 0.041 | [2] 0.031 | [3] -0.026 | [4] 0.01 | [5] 0 | [6] 0.009 | [7] -0.009 | [8] 0.009 | IRAK-1-4 Inhibitor I 0.018 | ibrutinib 0 | [9] -0.005 | ralimetinib 0.013 | [10] -0.004 | [11] 0.001 | [12] 0.024 | [13] 0.006 | [14] -0.009 | [15] -0.038 | [16] -0.001

ACTR3B (UniProt Q9P1U1)
inactive: erlotinib -0.039 | [1] -0.069 | [2] -0.041 | [3] -0.003 | [4] 0.062 | [5] 0.077 | [6] -0.144 | [7] 0.041 | [8] 0.053 | IRAK-1-4 Inhibitor I 0.011 | ibrutinib 0.008 | [9] 0.005 | ralimetinib -0.068 | [10] 0.046 | [11] 0.023 | [12] -0.056 | [13] 0.024 | [14] -0.023 | [15] -0.016 | [16] -0.002

ADK (UniProt P55263)
inactive: erlotinib 0.219 | [1] -0.024 | [2] -0.028 | [3] 0.132 | [4] -0.079 | [5] 0.047 | [6] 0.011 | [7] -0.049 | [8] 0.026 | IRAK-1-4 Inhibitor I 0.063 | ibrutinib -0.028 | [9] 0.107 | ralimetinib 0.313 | [10] -0.027 | [11] -0.05 | [12] -0.073 | [13] -0.059 | [14] -0.007 | [15] -0.008 | [16] -0.005

ACSL3 (UniProt O95573)
inactive: erlotinib 0.054 | [1] 0.045 | [2] 0.107 | [3] 0.003 | [4] 0.015 | [5] -0.033 | [6] -0.005 | [7] -0.03 | [8] 0.049 | IRAK-1-4 Inhibitor I 0.025 | ibrutinib -0.036 | [9] -0.005 | ralimetinib 0.022 | [10] -0.023 | [11] -0.074 | [12] 0.029 | [13] -0.006 | [14] 0.008 | [15] 0.017 | [16] 0.041

2 successive entries out of the list so far, for reference:
ACTR3B (UniProt Q9P1U1)
inactive: erlotinib -0.039 | [1] -0.069 | [2] -0.041 | [3] -0.003 | [4] 0.062 | [5] 0.077 | [6] -0.144 | [7] 0.041 | [8] 0.053 | IRAK-1-4 Inhibitor I 0.011 | ibrutinib 0.008 | [9] 0.005 | ralimetinib -0.068 | [10] 0.046 | [11] 0.023 | [12] -0.056 | [13] 0.024 | [14] -0.023 | [15] -0.016 | [16] -0.002

ADK (UniProt P55263)
inactive: erlotinib 0.219 | [1] -0.024 | [2] -0.028 | [3] 0.132 | [4] -0.079 | [5] 0.047 | [6] 0.011 | [7] -0.049 | [8] 0.026 | IRAK-1-4 Inhibitor I 0.063 | ibrutinib -0.028 | [9] 0.107 | ralimetinib 0.313 | [10] -0.027 | [11] -0.05 | [12] -0.073 | [13] -0.059 | [14] -0.007 | [15] -0.008 | [16] -0.005

Carrying on:

ACSM3 (UniProt Q53FZ2)
inactive: erlotinib -0.015 | [1] 0.124 | [2] 0.013 | [3] 0.027 | [4] -0.015 | [5] -0.004 | [6] -0.026 | [7] 0.031 | [8] 0.007 | IRAK-1-4 Inhibitor I 0.005 | ibrutinib -0.036 | [9] 0.044 | ralimetinib 0.009 | [10] -0.027 | [11] 0.003 | [12] -0.04 | [13] -0.002 | [14] -0.022 | [15] 0.034 | [16] -0.007

AHCYL1 (UniProt O43865)
inactive: erlotinib -0.015 | [1] 0.018 | [2] -0.034 | [3] -0.009 | [4] -0.006 | [5] 0.008 | [6] -0.073 | [7] -0.024 | [8] 0.009 | IRAK-1-4 Inhibitor I 0.007 | ibrutinib 0.014 | [9] -0.02 | ralimetinib -0.004 | [10] 0.022 | [11] 0.003 | [12] 0.016 | [13] -0.065 | [14] -0.028 | [15] 0.009 | [16] 0.021

ADAMTS5 (UniProt Q9UNA0)
inactive: erlotinib 0.027 | [1] 0.004 | [2] 0.044 | [3] -0.05 | [4] -0.046 | [5] 0.049 | [6] -0.001 | [7] 0.058 | [8] 0.073 | IRAK-1-4 Inhibitor I 0.123 | ibrutinib 0.032 | [9] -0.057 | ralimetinib -0.016 | [10] -0.186 | [11] -0.011 | [12] 0.008 | [13] -0.067 | [14] 0.093 | [15] -0.031 | [16] -0.076

AK5 (UniProt Q9Y6K8)
inactive: erlotinib -0.07 | [1] 0.017 | [2] -0.026 | [3] 0.016 | [4] 0.008 | [5] -0.038 | [6] 0.065 | [7] 0.033 | [8] 0.009 | IRAK-1-4 Inhibitor I -0.04 | ibrutinib 0.024 | [9] -0.01 | ralimetinib 0.004 | [10] -0.023 | [11] 0.063 | [12] -0.138 | [13] -0.052 | [14] -0.043 | [15] -0.008 | [16] -0.001

AGL (UniProt P35573)
inactive: erlotinib 0.007 | [1] 0.002 | [2] 0.003 | [3] -0.021 | [4] -0.01 | [5] 0.008 | [6] -0.035 | [7] -0.017 | [8] -0.006 | IRAK-1-4 Inhibitor I 0.001 | ibrutinib -0.007 | [9] 0.01 | ralimetinib 0.048 | [10] 0.018 | [11] -0.006 | [12] -0.004 | [13] 0.021 | [14] -0.017 | [15] 0 | [16] 0.027

AKAP1 (UniProt Q92667)
inactive: erlotinib -0.001 | [1] -0.006 | [2] 0.023 | [3] -0.024 | [4] -0.031 | [5] 0.004 | [6] -0.024 | [7] 0.002 | [8] 0.093 | IRAK-1-4 Inhibitor I -0.002 | ibrutinib 0.008 | [9] -0.03 | ralimetinib 0.002 | [10] -0.011 | [11] -0.01 | [12] -0.044 | [13] 0.016 | [14] -0.014 | [15] 0.015 | [16] 0.023

ADAM10 (UniProt O14672)
inactive: erlotinib -0.041 | [1] -0.139 | [2] -0.003 | [3] 0.03 | [4] 0.002 | [5] 0.003 | [6] -0.029 | [7] -0.021 | [8] 0.006 | IRAK-1-4 Inhibitor I 0.003 | ibrutinib -0.01 | [9] -0.001 | ralimetinib 0.037 | [10] -0.02 | [11] -0.02 | [12] 0.021 | [13] 0.014 | [14] -0.006 | [15] -0.023 | [16] -0.043

AIP (UniProt O00170)
inactive: erlotinib -0.006 | [1] -0.032 | [2] -0.015 | [3] -0.004 | [4] -0.012 | [5] 0.018 | [6] 0.026 | [7] -0.002 | [8] 0.016 | IRAK-1-4 Inhibitor I -0.012 | ibrutinib 0.019 | [9] -0.004 | ralimetinib -0.022 | [10] -0.003 | [11] -0.012 | [12] -0.011 | [13] -0.017 | [14] 0.011 | [15] 0 | [16] -0.023

ADIPOR2 (UniProt Q86V24)
inactive: erlotinib 0.032 | [1] -0.115 | [2] 0.037 | [3] 0 | [4] -0.287 | [5] -0.043 | [6] -0.227 | [7] 0.057 | [8] 0.078 | IRAK-1-4 Inhibitor I 0.069 | ibrutinib 0.156 | [9] 0.019 | ralimetinib 0.046 | [10] 0.066 | [11] -0.036 | [12] -0.03 | [13] -0.042 | [14] -0.029 | [15] -0.067 | [16] -0.055

ACSL4 (UniProt O60488)
inactive: erlotinib 0.004 | [1] -0.074 | [2] -0.053 | [3] 0.062 | [4] 0.022 | [5] -0.014 | [6] -0.032 | [7] -0.065 | [8] -0.007 | IRAK-1-4 Inhibitor I 0.04 | ibrutinib 0.035 | [9] -0.012 | ralimetinib 0.051 | [10] -0.022 | [11] -0.015 | [12] 0.027 | [13] -0.079 | [14] -0.044 | [15] 0.052 | [16] 0.021

ADAL (UniProt Q6DHV7)
inactive: erlotinib -0.008 | [1] -0.009 | [2] -0.007 | [3] 0.033 | [4] -0.012 | [5] -0.007 | [6] -0.015 | [7] -0.003 | [8] 0.046 | IRAK-1-4 Inhibitor I 0.004 | ibrutinib 0.057 | [9] 0.011 | ralimetinib 0.02 | [10] 0.017 | [11] -0.013 | [12] 0.014 | [13] -0.009 | [14] -0.039 | [15] 0.015 | [16] -0.015

ADPGK (UniProt Q9BRR6)
inactive: erlotinib -0.037 | [1] 0.053 | [2] -0.135 | [3] 0.045 | [4] 0.01 | [5] 0 | [6] -0.035 | [7] -0.086 | [8] 0.026 | IRAK-1-4 Inhibitor I 0.008 | ibrutinib 0.039 | [9] 0.015 | ralimetinib 0.026 | [10] -0.026 | [11] 0.014 | [12] 0.052 | [13] -0.038 | [14] -0.06 | [15] 0.008 | [16] -0.034
